Reference: PMC7351111

Chains of the proteins cited; added tags and fusions are not shown.
UniProt Q9BXW9: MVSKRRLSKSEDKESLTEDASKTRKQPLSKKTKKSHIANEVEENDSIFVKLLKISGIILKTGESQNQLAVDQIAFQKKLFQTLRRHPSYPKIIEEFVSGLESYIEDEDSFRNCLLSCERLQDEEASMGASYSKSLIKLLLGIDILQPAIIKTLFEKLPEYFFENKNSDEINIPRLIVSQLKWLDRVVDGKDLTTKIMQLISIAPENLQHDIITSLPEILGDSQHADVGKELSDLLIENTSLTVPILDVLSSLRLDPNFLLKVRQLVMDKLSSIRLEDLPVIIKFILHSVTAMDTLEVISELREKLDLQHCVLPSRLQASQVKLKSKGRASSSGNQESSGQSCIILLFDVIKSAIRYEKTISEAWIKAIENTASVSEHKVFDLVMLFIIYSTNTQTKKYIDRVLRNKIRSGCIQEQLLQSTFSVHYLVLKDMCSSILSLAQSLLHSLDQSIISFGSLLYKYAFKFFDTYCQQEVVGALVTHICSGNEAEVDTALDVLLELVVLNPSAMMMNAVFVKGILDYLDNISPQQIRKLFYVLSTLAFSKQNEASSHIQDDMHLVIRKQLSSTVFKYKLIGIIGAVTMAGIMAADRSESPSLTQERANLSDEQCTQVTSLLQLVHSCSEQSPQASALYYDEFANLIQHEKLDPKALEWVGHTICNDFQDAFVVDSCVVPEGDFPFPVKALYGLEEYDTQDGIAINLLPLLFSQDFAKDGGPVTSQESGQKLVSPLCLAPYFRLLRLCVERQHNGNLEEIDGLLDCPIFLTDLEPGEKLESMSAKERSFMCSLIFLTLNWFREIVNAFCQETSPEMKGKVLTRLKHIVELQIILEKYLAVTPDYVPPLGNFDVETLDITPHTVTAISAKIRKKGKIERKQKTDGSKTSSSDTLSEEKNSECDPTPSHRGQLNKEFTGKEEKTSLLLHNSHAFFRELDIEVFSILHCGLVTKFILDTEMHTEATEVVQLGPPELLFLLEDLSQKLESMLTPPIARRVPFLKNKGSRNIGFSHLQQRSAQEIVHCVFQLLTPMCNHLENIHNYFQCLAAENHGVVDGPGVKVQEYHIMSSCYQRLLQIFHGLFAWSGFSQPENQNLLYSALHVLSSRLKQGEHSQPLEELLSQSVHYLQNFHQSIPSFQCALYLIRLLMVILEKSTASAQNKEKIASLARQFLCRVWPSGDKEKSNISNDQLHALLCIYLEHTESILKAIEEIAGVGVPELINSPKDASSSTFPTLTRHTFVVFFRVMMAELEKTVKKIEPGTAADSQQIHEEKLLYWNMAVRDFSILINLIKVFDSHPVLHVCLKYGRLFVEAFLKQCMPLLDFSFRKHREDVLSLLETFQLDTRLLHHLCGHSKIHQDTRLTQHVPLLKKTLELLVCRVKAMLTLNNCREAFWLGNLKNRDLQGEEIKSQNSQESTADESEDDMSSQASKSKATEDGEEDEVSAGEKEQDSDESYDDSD
UniProt P39748: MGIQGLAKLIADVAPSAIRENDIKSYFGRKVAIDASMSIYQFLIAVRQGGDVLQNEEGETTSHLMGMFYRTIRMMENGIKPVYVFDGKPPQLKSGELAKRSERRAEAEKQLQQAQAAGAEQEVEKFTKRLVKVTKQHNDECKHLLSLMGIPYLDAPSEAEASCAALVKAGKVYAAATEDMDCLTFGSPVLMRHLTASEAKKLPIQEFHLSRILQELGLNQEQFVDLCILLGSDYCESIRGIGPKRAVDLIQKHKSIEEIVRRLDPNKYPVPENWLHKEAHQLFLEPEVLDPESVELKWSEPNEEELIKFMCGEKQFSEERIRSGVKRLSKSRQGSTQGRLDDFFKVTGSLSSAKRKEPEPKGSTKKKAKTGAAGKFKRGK
UniProt P28340: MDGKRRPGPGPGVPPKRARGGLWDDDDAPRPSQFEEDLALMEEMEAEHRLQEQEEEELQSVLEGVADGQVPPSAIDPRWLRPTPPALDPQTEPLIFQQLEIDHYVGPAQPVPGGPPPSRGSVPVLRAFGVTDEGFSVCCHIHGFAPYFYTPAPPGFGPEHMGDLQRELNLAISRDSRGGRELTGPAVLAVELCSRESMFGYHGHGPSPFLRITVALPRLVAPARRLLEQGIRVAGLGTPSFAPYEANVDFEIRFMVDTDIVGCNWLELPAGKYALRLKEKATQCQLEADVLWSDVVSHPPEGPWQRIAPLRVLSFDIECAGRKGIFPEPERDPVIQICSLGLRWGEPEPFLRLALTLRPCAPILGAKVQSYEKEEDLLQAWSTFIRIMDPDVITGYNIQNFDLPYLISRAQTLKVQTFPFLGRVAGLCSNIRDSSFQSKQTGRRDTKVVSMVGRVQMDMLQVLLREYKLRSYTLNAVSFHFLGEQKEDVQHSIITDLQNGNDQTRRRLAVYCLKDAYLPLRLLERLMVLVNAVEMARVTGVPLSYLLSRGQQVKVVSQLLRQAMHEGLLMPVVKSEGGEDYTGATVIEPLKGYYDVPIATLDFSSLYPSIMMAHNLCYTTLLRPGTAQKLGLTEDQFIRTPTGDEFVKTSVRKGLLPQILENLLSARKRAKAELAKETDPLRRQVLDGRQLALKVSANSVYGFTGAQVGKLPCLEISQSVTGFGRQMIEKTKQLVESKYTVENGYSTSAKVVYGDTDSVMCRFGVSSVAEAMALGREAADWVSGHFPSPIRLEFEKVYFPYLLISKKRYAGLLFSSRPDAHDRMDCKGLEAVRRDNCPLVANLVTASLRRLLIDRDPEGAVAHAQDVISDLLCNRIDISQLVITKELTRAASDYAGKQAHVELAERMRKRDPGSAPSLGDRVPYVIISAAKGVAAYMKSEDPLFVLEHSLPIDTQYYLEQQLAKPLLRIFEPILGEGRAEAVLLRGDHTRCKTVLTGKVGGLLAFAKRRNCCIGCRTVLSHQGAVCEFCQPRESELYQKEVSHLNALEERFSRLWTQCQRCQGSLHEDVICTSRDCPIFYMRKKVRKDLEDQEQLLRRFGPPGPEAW
UniProt P49005: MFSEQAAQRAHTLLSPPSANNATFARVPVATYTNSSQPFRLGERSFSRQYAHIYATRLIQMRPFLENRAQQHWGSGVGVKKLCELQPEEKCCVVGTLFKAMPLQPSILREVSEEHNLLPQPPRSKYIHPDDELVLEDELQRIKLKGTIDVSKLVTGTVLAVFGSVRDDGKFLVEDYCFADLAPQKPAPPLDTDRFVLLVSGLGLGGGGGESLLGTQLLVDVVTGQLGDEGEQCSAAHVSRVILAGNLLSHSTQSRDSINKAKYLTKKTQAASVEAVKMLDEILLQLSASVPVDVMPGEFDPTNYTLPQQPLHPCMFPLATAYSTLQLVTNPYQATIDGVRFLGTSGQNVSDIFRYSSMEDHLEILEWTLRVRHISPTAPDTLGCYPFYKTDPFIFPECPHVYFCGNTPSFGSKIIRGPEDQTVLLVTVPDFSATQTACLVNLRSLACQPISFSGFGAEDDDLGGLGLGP
UniProt Q92878: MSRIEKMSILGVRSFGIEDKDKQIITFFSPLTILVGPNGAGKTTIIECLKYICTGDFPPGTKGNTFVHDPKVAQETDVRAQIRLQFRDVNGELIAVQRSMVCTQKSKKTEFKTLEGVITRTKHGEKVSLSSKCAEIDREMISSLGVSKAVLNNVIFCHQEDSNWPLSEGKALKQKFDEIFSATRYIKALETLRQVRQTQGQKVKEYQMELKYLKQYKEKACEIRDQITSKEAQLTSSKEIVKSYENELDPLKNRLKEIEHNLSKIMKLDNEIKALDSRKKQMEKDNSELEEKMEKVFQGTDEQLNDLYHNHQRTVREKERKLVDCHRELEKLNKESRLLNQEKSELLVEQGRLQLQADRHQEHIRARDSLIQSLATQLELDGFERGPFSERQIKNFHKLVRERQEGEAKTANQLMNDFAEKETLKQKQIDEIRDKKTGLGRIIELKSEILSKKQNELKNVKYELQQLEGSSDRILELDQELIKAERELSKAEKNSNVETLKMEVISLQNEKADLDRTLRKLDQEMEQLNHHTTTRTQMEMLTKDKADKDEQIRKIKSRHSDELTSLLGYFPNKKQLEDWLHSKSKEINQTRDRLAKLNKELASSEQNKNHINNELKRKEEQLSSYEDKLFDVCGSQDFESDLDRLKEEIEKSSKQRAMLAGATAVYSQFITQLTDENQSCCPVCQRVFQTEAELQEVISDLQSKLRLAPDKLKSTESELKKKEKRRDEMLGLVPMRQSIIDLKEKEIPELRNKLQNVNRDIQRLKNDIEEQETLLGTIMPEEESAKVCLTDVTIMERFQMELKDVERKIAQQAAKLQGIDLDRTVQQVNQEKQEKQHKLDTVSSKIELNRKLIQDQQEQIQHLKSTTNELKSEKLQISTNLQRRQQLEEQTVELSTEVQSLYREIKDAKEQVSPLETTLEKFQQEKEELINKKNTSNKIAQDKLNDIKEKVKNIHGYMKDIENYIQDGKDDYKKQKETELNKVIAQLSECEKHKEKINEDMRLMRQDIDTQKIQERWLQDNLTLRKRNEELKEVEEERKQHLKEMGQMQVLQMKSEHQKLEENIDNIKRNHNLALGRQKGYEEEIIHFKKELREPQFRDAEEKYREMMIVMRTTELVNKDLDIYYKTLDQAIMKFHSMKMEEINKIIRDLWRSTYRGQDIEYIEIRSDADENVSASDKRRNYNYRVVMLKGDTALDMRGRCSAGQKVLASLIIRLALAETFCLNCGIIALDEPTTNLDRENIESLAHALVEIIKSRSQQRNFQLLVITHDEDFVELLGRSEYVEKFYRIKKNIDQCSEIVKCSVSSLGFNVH

Target: Flag-HA-FANCD2 (stably expressed in HeLa cells) (human) (UniProt Q9BXW9)
Experiment: affinity purification with mass spectrometry; Flag-HA-FANCD2 purified in two steps (M2 anti-FLAG agarose, then anti-HA Sepharose) from nuclear extract of HeLa S3 cells treated with 160 ng/ml mitomycin C overnight; nuclei treated with Benzonase and 1% formaldehyde for 3 min; TCA precipitate analysed by silver stain and MS/MS

binding, binds:
FEN1 (endogenous, HeLa) (from UniProt P39748 1-380)
POLD1 (endogenous, HeLa) (from UniProt P28340 1-1107)
POLD2 (endogenous, HeLa) (from UniProt P49005 1-469)
RAD50 (endogenous, HeLa) (from UniProt Q92878 1-1312)

Results are given in words; binding and its absence hold for the method and conditions named. In cells and extracts the contact can be indirect. A yes stands for co-enrichment or nearness to the bait. Other partners may have been found.
